Experimental data as given in PubChem BioAssay AID1671190 (National Center for Advancing Translational Sciences (NCATS), 2021).
Among all 580,000 compounds or so, about 6,100 (1.1%) were called active. Inconclusive results, whose numbers are uncertain, are shown with a selection of clear calls. Calls follow the shape of the dose curve; as a rule, active = well fitted inhibition curve with a large enough effect; inconclusive = small, poorly fitted or top-dose-only effect, or another doubt; inactive = no such curve, though single readings can be large or run the other way. Potencies beside an inconclusive call are fits to weak or partial responses and may not hold up.

The chains behind the UniProt entries cited, without tags or fusion partners.
UniProt P18054, whole entry, looked up: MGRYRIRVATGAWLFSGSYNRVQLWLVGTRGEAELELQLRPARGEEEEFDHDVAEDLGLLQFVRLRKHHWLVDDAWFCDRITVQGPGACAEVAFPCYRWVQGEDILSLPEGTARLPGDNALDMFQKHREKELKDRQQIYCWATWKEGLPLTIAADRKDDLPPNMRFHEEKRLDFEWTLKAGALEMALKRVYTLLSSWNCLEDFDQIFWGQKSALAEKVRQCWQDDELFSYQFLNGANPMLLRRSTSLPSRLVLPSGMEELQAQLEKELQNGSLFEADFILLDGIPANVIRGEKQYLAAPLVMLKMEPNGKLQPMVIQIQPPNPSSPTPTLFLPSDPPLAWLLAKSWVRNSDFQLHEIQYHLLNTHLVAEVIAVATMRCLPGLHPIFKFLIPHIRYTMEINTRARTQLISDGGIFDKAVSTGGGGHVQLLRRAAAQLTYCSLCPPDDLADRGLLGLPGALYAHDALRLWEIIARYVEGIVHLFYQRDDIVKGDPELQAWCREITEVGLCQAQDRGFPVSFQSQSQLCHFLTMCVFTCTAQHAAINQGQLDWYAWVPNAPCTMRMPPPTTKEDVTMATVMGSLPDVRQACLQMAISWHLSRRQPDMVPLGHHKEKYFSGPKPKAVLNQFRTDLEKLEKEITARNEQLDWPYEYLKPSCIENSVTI

What follows are compounds tested against Polyunsaturated fatty acid lipoxygenase ALOX12 (Homo sapiens) (UniProt P18054) (assay: Primary qHTS assay for inhibitors of human arachidonate 12S-lipoxygenase (ALOX12): Round 2). Details: purified 12hLO, xylenol orange hydroperoxide absorbance; activity change, negative = inhibition: at 108 µM (top of the series) unless noted.
Procedure, shortened: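 Purified human 12hLO at 150 nM in 25 mM Hepes, 0.01% Triton X-100, pH 7.0, preincubated 15 min at room temperature with compound. Reaction started with 40 uM arachidonic acid, 30 min at room temperature. Hydroperoxide measured by Fe-xylenol orange, 573/405 nm absorbance ratio.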
% is scaled to controls: 0 for no effect and ±100 for the full control effect; potency is read from the fitted curve at half-maximal effect.

| SMILES | Potency | activity change, negative = inhibition |
| --- | --- | --- |
| Cc1ccc(NC(=O)C(C)Sc2nnc(C)n2C2CC2)cc1S(=O)(=O)N1CCOCC1 (configuration not stated) | inconclusive: 79.4 µM [inhibitor, partial curve, poor fit] | – |
| CCCCCCOC(=O)CCc1c(C)nc(N)[nH]c1=O | inconclusive: 35.5 µM [inhibitor, single point] | – |
| CC(=O)Nc1c(O)nc(SC/C=C/CSc2nc(O)c(NC(C)=O)c(=O)[nH]2)[nH]c1=O | inconclusive: 22.4 µM [inhibitor, partial curve, poor fit] | – |
| Cc1ccc(C(=O)Nc2ccc3ncccc3c2)cc1 | – | inactive: 5.31% |
| O=C(c1ccc(CN2C(=O)NC3(CCS(=O)(=O)CC3)C2=O)cc1)N1CCOCC1 | inconclusive: 44.7 µM [inhibitor, partial curve] | – |
| COc1ccc(CNC(=O)C(C)N(Cc2ccccc2OC)C(=O)c2snc(C(N)=O)c2N)cc1 (configuration not stated) | – | inactive: -12% |
| Cc1ccc(C)c(OC(C)C(=O)Nc2ccc(S(=O)(=O)Nc3nccs3)cc2)c1 (configuration not stated) | inconclusive: 50.1 µM [inhibitor, partial curve, poor fit] | – |
| CCOc1ccc(NC(=O)COC(=O)c2ncc(Cl)c(Cl)c2Cl)cc1 | – | inactive: 0.047% |
| Cc1cccc(Nc2nn3c(=O)c4cc5c(cc4nc3s2)OCO5)c1 | inconclusive: 56.2 µM [inhibitor, partial curve, poor fit] | – |
| CCc1c(C)nc2ncnn2c1Nc1ccccc1C | – | inactive: 6.93% |
| Cc1ccc(S(=O)(=O)N(C)C(C)c2cc3ccccc3o2)cc1C (configuration not stated) | – | inactive: 0.471% |
| Cc1ccc(C)c(S(=O)(=O)N2CCN(C3CCN(Cc4cccnc4)C3=O)CC2)c1 (configuration not stated) | inconclusive: 17.8 µM [inhibitor, full curve, poor fit] | – |
| Brc1ccc(-c2noc(Cc3cccs3)n2)o1 | active: 25.1 µM | – |
| CCCN1CCN(CCCNC(=O)c2cc3c(=O)[nH]c4ccc(C)cc4c3s2)CC1 | – | inactive: 5.48% |
| Cn1ncc(Br)c1C(=O)NC1CCCCC1 | inconclusive: 112 µM [inhibitor, partial curve, poor fit] | – |
| CS(=O)(=O)CCN1C[C@@H](C(=O)O)[C@H](c2cccnc2)C1 | – | inactive: 31.5% |
| CCOc1ccc(Nc2cc(C)nc3c(C)cccc23)cc1 | inconclusive: 3.16 µM [inhibitor, full curve] | – |
| CCOc1cc(C(=O)Oc2ccc(C#N)cc2OC)cc(OCC)c1OCC | inconclusive: 50.1 µM [inhibitor, partial curve, poor fit] | – |
| CCc1ccc(-n2c(SCC(=O)N3Cc4ccccc4CC3C(=O)O)nnc2-c2ccncc2)cc1 (configuration not stated) | – | inactive: -22.3% |
| N=c1c(S(=O)(=O)c2ccccc2)cc2c(=O)n3ccccc3nc2n1CCCN1CCOCC1 | inconclusive: 50.1 µM [inhibitor, partial curve, poor fit] | – |
| CCCCC(=O)Nc1ccc(C(=O)NNC(=O)CCCOc2ccc(Cl)cc2Cl)cc1 | inconclusive: 56.2 µM [inhibitor, partial curve, poor fit] | – |
| CN(Cc1ccccc1F)c1cc2c(c3c1ccn3C)C1CCC2C1 (configuration not stated) | inconclusive: 89.1 µM [inhibitor, partial curve, poor fit] | – |
| CCCOc1ccc(NC(=O)COc2ccccc2)c2cccnc12 | – | inactive: 29.1% |

Not a retest: 3 of the compounds above.

| SMILES | Potency | activity change, negative = inhibition |
| --- | --- | --- |
| Cc1ccc(NC(=O)C(C)Sc2nnc(C)n2C2CC2)cc1S(=O)(=O)N1CCOCC1 (configuration not stated) | inconclusive: 79.4 µM [inhibitor, partial curve, poor fit] | – |
| CCCCCCOC(=O)CCc1c(C)nc(N)[nH]c1=O | inconclusive: 35.5 µM [inhibitor, single point] | – |
| CC(=O)Nc1c(O)nc(SC/C=C/CSc2nc(O)c(NC(C)=O)c(=O)[nH]2)[nH]c1=O | inconclusive: 22.4 µM [inhibitor, partial curve, poor fit] | – |

Following part

| SMILES | Potency | activity change, negative = inhibition |
| --- | --- | --- |
| CCn1cc(/C=C(\NC(=O)c2ccccc2F)C(=O)N2CCN(C)CC2)c2ccccc21 | inconclusive: 112 µM [inhibitor, partial curve, poor fit] | – |
| O=C1CC(N2CCC(O)CC2)C(=O)N1c1ccc(Br)cc1 (configuration not stated) | inconclusive: 44.7 µM [inhibitor, single point] | – |
| COc1ccc(OC)c(N/C(=N/C(=S)Nc2ccccc2)Nc2nc(C)cc(C)n2)c1 | inconclusive: 5.01 µM [inhibitor, full curve, poor fit] | – |
| N#Cc1c(O)c2c(-c3ccc(-c4ccccc4O)cc3)csc2[nH]c1=O | active: 24.3 µM | – |
| COc1ccccc1N1CCN(C(c2ccc(Cl)cc2)c2nnc(-c3cccc(F)c3)o2)CC1 (configuration not stated) | – | inactive: 6.15% |
| CCc1nnc(NCC(=O)N2CCc3ccccc32)s1 | – | inactive: 0.808% |
| O=C(Nc1ccc(F)c(Cl)c1)c1cnc(N2CCCCC2)c2ccccc12 | – | inactive: -49.1% |
| Cc1onc(-c2ccccc2Cl)c1C(=O)NC(=S)Nc1ccccc1F | inconclusive: 44.7 µM [inhibitor, partial curve] | – |
| FC(F)(F)c1cccc(NC(=S)NC2CCCC2)c1 | inconclusive: 56.2 µM [inhibitor, partial curve, poor fit] | – |
| CCN(CC)S(=O)(=O)c1ccc(N(C)C)c(NS(=O)(=O)c2ccccc2C(F)(F)F)c1 | inconclusive: 35.5 µM [inhibitor, partial curve, poor fit] | – |
| CCCSc1oc(-c2ccco2)nc1S(=O)(=O)c1ccc(Cl)cc1 | active: 39.8 µM | – |
| N#Cc1c(N2CCN(C(=O)C(=O)N3CCOCC3)CC2)nc(-c2ccccc2)c2c1CCCC2 | inconclusive: 141 µM [inhibitor, single point] | – |
| Cc1cc(C)nc(N/N=C/c2cccc([N+](=O)[O-])c2)n1 | inconclusive: 112 µM [inhibitor, single point] | – |
| COc1ccc(S(=O)(=O)Nc2ccc3oc(C)c(C(=O)O)c3c2)cc1 | inconclusive: 35.5 µM [inhibitor, partial curve, poor fit] | – |
| Cc1oc(-c2ccc(Cl)cc2)cc1C(=O)/C(C#N)=C/Nc1cccc(OC(F)(F)F)c1 | inconclusive: 50.1 µM [inhibitor, partial curve, poor fit] | – |
| CC(C)NC(=O)N1CC2ON=C(C(=O)NCc3cccnc3)C2C1 (configuration not stated) | inconclusive: 141 µM [inhibitor, partial curve, poor fit] | – |
| COc1ccc(CC(=O)Nc2sc3c(c2C(=O)Nc2cccc(C)c2)CCCCC3)cc1 | inconclusive: 112 µM [inhibitor, single point] | – |
| COc1ccc(CCNC(=O)CN(C2CCCCC2)S(C)(=O)=O)cc1OC | inconclusive: 56.2 µM [inhibitor, partial curve, poor fit] | – |
| O=C(CSc1nc2c(c(=O)[nH]1)CCCC2)Nc1oncc1-c1ccccc1 | inconclusive: 20 µM [inhibitor, full curve, poor fit] | – |
| O=C(/C=C/C=C/c1cccs1)c1ccc(-c2ccccc2)cc1 | inconclusive: 7.08 µM [inhibitor, partial curve, poor fit] | – |
| COCC(=O)Nc1cc(C(=O)N2CC3CCCC2C3)c2c(c1)nc(-c1ccncc1)n2C (configuration not stated) | – | inactive: 7.76% |
| Cc1oc(-c2ccccc2F)nc1CS(=O)CC(=O)NCc1ccc(F)cc1 (configuration not stated) | – | inactive: 8.21% |
| COC(=O)c1ccccc1NCC(=O)NC(=O)NC(C)C | – | inactive: -38.7% |

| SMILES | Potency | activity change, negative = inhibition |
| --- | --- | --- |
| O=C(NCCCN1CCCc2ccccc21)C1Cn2cccc2C(=O)N1Cc1cccnc1 (configuration not stated) | – | inactive: 40.8% |
| CCCCC(=O)O[C@H]1CC[C@H]2[C@@H]3CCc4cc(O)ccc4[C@H]3CC[C@]12C | inconclusive: 63.1 µM [inhibitor, partial curve, poor fit] | – |
| Cc1ccc(C(C)NC(=O)c2c(-c3ccccc3)noc2C)cc1C (configuration not stated) | inconclusive: 89.1 µM [inhibitor, partial curve, poor fit] | – |
| Cc1ccc(NC(=O)CSCC(=O)NCc2cccc(C(F)(F)F)c2)cc1 | inconclusive: 126 µM [inhibitor, single point] | – |
| N#C/C(=C\c1ccccc1Cl)C(=O)Nc1ccccn1 | inconclusive: 39.8 µM [inhibitor, single point] | – |
| CC(C)OCc1ccccc1CNS(=O)(=O)c1ccc(Br)cc1Cl | inconclusive: 50.1 µM [inhibitor, single point] | – |
| CCCc1nc2c3ccccc3ccn2c1Cc1cccc(F)c1 | inconclusive: 39.8 µM [inhibitor, partial curve, poor fit] | – |
| CNc1ncc(-c2nnnn2-c2ccccc2)c(-c2ccccc2)n1 | inconclusive: 112 µM [inhibitor, single point] | – |
| Cc1cccc(NC(=O)COc2ncnc3ccc(Br)cc23)c1C | inconclusive: 70.8 µM [inhibitor, single point] | – |
| COc1ccc(-c2noc([C@@H]3CCCN3C(=O)c3ccccc3F)n2)cc1OC | – | inactive: 24% |
| CCc1ccccc1NC(=O)Nc1cn(C)c(=O)c2ccccc12 | inconclusive: 63.1 µM [inhibitor, partial curve, poor fit] | – |
| CC(C)N1C(=O)C2(CCCC2)C1C(=O)NCc1cc(F)cc(F)c1 (configuration not stated) | – | inactive: 48.1% |
| O=C1NN(c2ccccc2)C(=O)C1=Cc1ccccc1O | inconclusive: 28.2 µM [inhibitor, partial curve] | – |
| Cc1cccc(Nc2nc(-c3sc(C)nc3C)cs2)c1 | – | inactive: 2.9% |
| C=CC[N+]1(CC2C(C)C=C(C)CC2C)CCCCC1 (configuration not stated) | inconclusive: 50.1 µM [inhibitor, partial curve, poor fit] | – |
| CC(c1ccc(Cl)cc1)N(C)C(=O)CCc1ncc(-c2ccc(Cl)cc2)o1 (configuration not stated) | inconclusive: 50.1 µM [inhibitor, partial curve, poor fit] | – |
| CCCCn1c2nc3ccccc3nc2c2c(=O)n(CCC(C)C)cnc21 | – | inactive: -8.35% |
| COc1ccc2c(c1)[C@H]1[C@H](CO2)[C@H](c2ccccc2)[C@]2(C)C(=O)Nc3cc(F)c(F)cc3C(=O)N12 | inconclusive: 89.1 µM [inhibitor, single point] | – |
| CCOC(=O)c1sc2ccccc2c1S(=O)(=O)Nc1cccc(OC)c1 | – | inactive: -16.2% |
| COc1cccc(CCC(=O)N2C[C@@H](CO)[C@H](c3ccccn3)C2)c1 | – | inactive: -8.52% |
| COc1ccc(N2CCN(C(c3cc4ccc(C)cc4[nH]c3=O)c3nnnn3C3CCCC3)CC2)cc1 (configuration not stated) | inconclusive: 39.8 µM [inhibitor, partial curve, poor fit] | – |
